Assay results taken from US20250025581A1, “Medical Imaging of Glycogen Synthase Kinase-3 with a PET Probe” (Mayo Foundation for Medical Education and Research, priority 2021, published 2025).
At least one read-out could not be matched to a standard name with certainty.

Assay: in vivo PET imaging in mice (Example 1), brain uptake
Set-up: species or system mouse
Settings: relative to [18F]CNBI (4)
Description: Initial in vivo study in mouse model: Initial in vivo PET imaging studies were conducted in mice at different time points. The uptake of the [^18F]CNPIFE (28) probe is expressed as a standard uptake value (SUV).
In vivo study in mouse model: In vivo PET imaging studies were conducted in mice at different time points to compare the SUV for [^18F]—CNBI (4) and [^18F]CNPIFE (28).

O=C(Nc1cnccc1-c1ccc(OCC[18F])cc1)c1ccnc(NC(=O)C2CC2)c1 [[^18F]F-CNPIFE]
better blood brain barrier permeability compared to previous compounds such as [18F]CNBI (4): 6 ×
